Experiment [1] has as its target T1, LST-1^V5 (3xV5 epitope-tagged LST-1) (C. elegans) (UniProt P91820).
T1 sequence: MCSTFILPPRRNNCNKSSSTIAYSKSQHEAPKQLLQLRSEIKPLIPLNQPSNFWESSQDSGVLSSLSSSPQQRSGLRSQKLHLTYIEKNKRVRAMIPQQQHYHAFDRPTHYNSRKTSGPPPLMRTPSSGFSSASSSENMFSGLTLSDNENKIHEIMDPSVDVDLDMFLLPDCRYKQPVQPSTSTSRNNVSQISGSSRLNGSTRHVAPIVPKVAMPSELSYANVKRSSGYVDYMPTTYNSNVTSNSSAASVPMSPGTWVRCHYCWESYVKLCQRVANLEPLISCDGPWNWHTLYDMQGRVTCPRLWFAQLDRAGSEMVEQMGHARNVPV
Kind of experiment: co-IP; whole worms (glp-1(gf ts) adults with germline tumors, at least 10^6), cross-linked with 1% formaldehyde; lysis buffer with 1 M urea; epitope-tagged LST-1 immunoprecipitated with anti-V5 or anti-FLAG on protein G Dynabeads, 4 h at 4°C with RNase A 10 μg/ml; washes up to 0.5 M NaCl; western blot. A general note: A western blot detects proteins with antibodies after separation by electrophoresis.

For experiment [2], the target named is T1, LST-1^V5 (3xV5 epitope-tagged LST-1) (C. elegans). Kind of experiment: co-IP; whole worms, without formaldehyde cross-linking and without urea; lysates with or without Benzonase before immunoprecipitation of LST-1^V5 with anti-V5; western blot.

These are yes or no findings as the source states them, for the method shown. Binding seen in cells or lysates may run through a third protein. Some binding calls cover weakened binding; strength is not graded here. Tags and fused reporters may be left off the sequences shown.

B1: FBF-1^FLAG (protein, UniProt Q9N5M6 1-614)
chain: MDQSKMRYTNQFRKTPQKPTSTEVGNHHTPAHSPMAQHETSMWNFNSLNPYFSMLNMNDGMNYARHQQNHIVTSRPPTPLTDLMSLRSFQSFPNVFMPVSRSRTSSFIQSDTDSSRLEPDDFSQNVRYCSTEIDRNNSSSKNDHLKYSRPALSRNSRSFTRSNNVLPTWSLDSNGEMRSRLSLSEVLDSGDLMKFAVDKTGCQFLEKAVKGSLTSYQKFQLFEQVIGRKDDFLKLSTNIFGNYFVQEIIGMSLTTYDDDNIKRQEKLKNFISSQMTDMCLDKFACRVIQSSLQNMDLSLACKLVQALPRDARLIAICVDQNANHVIQKVVAVIPLKNWEFIVDFVATPEHLRQICFDKYGCRVVQTIIEKLTADSINVDLTSAAQHLRERALQRLMTSVTNRCQELATNEYANYIIQHIVSNDDLAVYRECIIEKCLMRNLLSLSQEKFASHVVEKAFLHAPMELLAEMMDEIFDGYMPHPGTGKDALDIMMFHQFGNYVVQCMLTICCDAVSGRRQTKEGSYDHANSFQVWLKKLHSRVTKERHRLSRFSSGKKMIETLAHLRSTHPIYGLQSSGHESFKTDCFSTASEHDGLELEKNGIEEGNLRLMRTFSP
Consider B1, for which the binding entry in experiment [1] and in experiment [2] was “binds” in each case.

These data come from PMC10259659.
